Values from PubChem BioAssay AID652272 (Drosophila RNAi Screening Center, 2013)
The deposit covers about 21,000 reagents; this is a random part of those with a known target gene and a result. Of all reagents, 503 (2.4%) are marked active. 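Raw plate light values, not normalised; calls rest on replicate z-scores that were not deposited; hits include reporter decreases as well as increases.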 Not given: the amount of reagent, the time to read-out.

Test: 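Genes whose knock-down decreases or increases Hedgehog reporter output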 (primary screen)
System: Drosophila clone 8 (Cl8) cells
Knock-down reagent: long dsRNA against Drosophila genes
Read-out: 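Firefly light from a Hedgehog-responsive ptc promoter reporter and Renilla reference light, both read on a plate reader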
Scale: firefly Hh reporter signal: higher = more ptc reporter light; Renilla reference signal: higher = more Renilla control light
Hit rule: 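Called a hit if the two-replicate mean z-score lies below -2 or above +3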
Calls: active = hit: reporter lowered or raised; inactive = not a hit

gene knocked down	DRSC id	firefly Hh reporter signal, replicate 1	firefly Hh reporter signal, replicate 2	firefly Hh reporter signal, replicate 3	Renilla reference signal, replicate 1	Renilla reference signal, replicate 2	Outcome
Eip63E (GeneID 38433)	DRSC08658	1.06e5	1.04e5		4339	3546	inactive
Cyp4s3 (GeneID 32444)	DRSC20241	1.55e5	3.83e5		4961	15061	inactive
knon (GeneID 36845)	DRSC07049	68829	37571		2000	3037	inactive
Cpr67B (GeneID 39081)	DRSC10373	1.54e5	81291		5643	3674	inactive
Rsbp15 (GeneID 41481)	DRSC14176	76594	1.05e5		2275	2288	inactive
Ho (GeneID 41407)	DRSC14939	1.24e5	81805		4811	3213	inactive
Pgm2a (GeneID 35923)	DRSC07068	1.26e5	58448		4858	2193	inactive
vig2 (GeneID 43016)	DRSC14402	95417	70592		3077	2184	inactive
Ets96B (GeneID 42952)	DRSC16127	4.14e5	95821		21463	2742	inactive
CG2157 (GeneID 32018)	DRSC19836	72832	1.90e5		2099	7353	inactive
Cpr78Cc (GeneID 40355)	DRSC11846	1.45e5	1.09e5		5225	3192	inactive
dpr2 (GeneID 3346227)	DRSC02370	1.18e5	86458		3353	6756	inactive
dpr2 (GeneID 3346227)	DRSC02371	1.21e5	1.05e5		2875	7035	inactive
SPR (GeneID 31463)	DRSC17390	6.08e5	2.56e5		26886	3388	inactive
SPR (GeneID 31463)	DRSC17886	77132	1.54e5		915	6236	inactive
SPR (GeneID 31463)	DRSC18114	98849	1.76e5		3776	7533	inactive
CG3939 (GeneID 31295)	DRSC18498	1.26e5	1.87e5		4887	6599	inactive
rdgC (GeneID 40224)	DRSC11387	79923	1.45e5		2407	4459	inactive
beat-Vc (GeneID 41575)	DRSC12927	36572	1.84e5		3019	2902	inactive
beat-Vc (GeneID 41575)	DRSC14849	1.16e5	1.10e5		4503	2163	inactive
Cow (GeneID 42733)	DRSC13601	5.72e5	1.12e5		5000	5000	inactive
Cow (GeneID 42733)	DRSC14680	3.97e5	97366		23394	2902	inactive
Cyp312a1 (GeneID 40005)	DRSC11128	74763			1402	3609	inactive
p38a (GeneID 42866)	DRSC16743	6.92e5	1.38e5		35280	4118	inactive
CG3544 (GeneID 33252)	DRSC00613	1.02e5	1.21e5		4492	5045	inactive
Cbp20 (GeneID 42166)	DRSC16601	4.00e5	55468		28056	2088	inactive
CG12316 (GeneID 39650)	DRSC09879	92196	64956		3686	3034	inactive
Rab23 (GeneID 40701)	DRSC12305	77754	1.33e5		3096	3106	inactive
CG7607 (GeneID 39263)	DRSC10889	68789	51257	83176	5584	5888	inactive
Bin1 (GeneID 41965)	DRSC16843	82320	79337		2716	1979	inactive
CG9674 (GeneID 39878)	DRSC11088	1.21e5	55955		4609	2471	inactive
CG9674 (GeneID 39878)	DRSC11089	1.21e5			2329	3280	inactive
uri (GeneID 37924)	DRSC04111	50273	43030		3336	2849	active
Cpr12A (GeneID 32309)	DRSC19722	81728	1.99e5		2016	8173	inactive
Sou (GeneID 37382)	DRSC04356	88880	65942		1985	5476	inactive

Reformatted: 6 of the entries above.
CG3544 (GeneID 33252) [DRSC00613] — firefly Hh reporter signal, replicate 1 = 1.02e5; firefly Hh reporter signal, replicate 2 = 1.21e5; Renilla reference signal, replicate 1 = 4492; Renilla reference signal, replicate 2 = 5045; Outcome = inactive
Cbp20 (GeneID 42166) [DRSC16601] — firefly Hh reporter signal, replicate 1 = 4.00e5; firefly Hh reporter signal, replicate 2 = 55468; Renilla reference signal, replicate 1 = 28056; Renilla reference signal, replicate 2 = 2088; Outcome = inactive
CG12316 (GeneID 39650) [DRSC09879] — firefly Hh reporter signal, replicate 1 = 92196; firefly Hh reporter signal, replicate 2 = 64956; Renilla reference signal, replicate 1 = 3686; Renilla reference signal, replicate 2 = 3034; Outcome = inactive
Rab23 (GeneID 40701) [DRSC12305] — firefly Hh reporter signal, replicate 1 = 77754; firefly Hh reporter signal, replicate 2 = 1.33e5; Renilla reference signal, replicate 1 = 3096; Renilla reference signal, replicate 2 = 3106; Outcome = inactive
CG7607 (GeneID 39263) [DRSC10889] — firefly Hh reporter signal, replicate 1 = 68789; firefly Hh reporter signal, replicate 2 = 51257; firefly Hh reporter signal, replicate 3 = 83176; Renilla reference signal, replicate 1 = 5584; Renilla reference signal, replicate 2 = 5888; Outcome = inactive
Bin1 (GeneID 41965) [DRSC16843] — firefly Hh reporter signal, replicate 1 = 82320; firefly Hh reporter signal, replicate 2 = 79337; Renilla reference signal, replicate 1 = 2716; Renilla reference signal, replicate 2 = 1979; Outcome = inactive

The listing continues.
gene knocked down	DRSC id	firefly Hh reporter signal, replicate 1	firefly Hh reporter signal, replicate 2	firefly Hh reporter signal, replicate 3	Renilla reference signal, replicate 1	Renilla reference signal, replicate 2	Outcome
CG15572 (GeneID 31371)	DRSC18060	64011	1.31e5		2211	6844	inactive
CG2641 (GeneID 40921)	DRSC15441	54070	98501		2611	3020	inactive
CG5861 (GeneID 34965)	DRSC02907	1.37e5	43384		4000	2011	inactive
CG13160 (GeneID 36343)	DRSC06284	82306	50528		2329	3656	inactive
moon (GeneID 32176)	DRSC19497	78567	2.47e5		1270	9309	inactive
CG6908 (GeneID 41410)	DRSC16131	55944	83120		1751	2800	inactive
CHKov1 (GeneID 43067)	DRSC01566	96122	1.86e5		2453	7744	inactive
CHKov1 (GeneID 43067)	DRSC01696	1.12e5	2.61e5		15335	11203	inactive
CHKov1 (GeneID 43067)	DRSC14258	4.01e5	75443		25392	2073	inactive
CHKov1 (GeneID 43067)	DRSC20937	5.99e5	2.23e5		34096	4314	inactive
Lsp2 (GeneID 45326)	DRSC09841	41499	44765	46199	4092	2896	inactive
Lsp2 (GeneID 45326)	DRSC11216	39178	30868	61244	3370	3760	inactive
CG33635 (GeneID 3772540)	DRSC00006	5.30e5	2.59e5		27253	9632	inactive
PNKP (GeneID 40994)	DRSC16512	71868	1.36e5		2561	4045	inactive
vtd (GeneID 3354896)	DRSC20839	2.92e5	86246		8269	1859	inactive
rha (GeneID 43071)	DRSC17044	96482	1.30e5		1129	2969	inactive
CG7639 (GeneID 36675)	DRSC07026	81756	38080		2166	3152	inactive
Nox (GeneID 5740310)	DRSC06596	1.00e5	59881		2676	3988	inactive
Nox (GeneID 5740310)	DRSC06857	78656	59732		2033	3857	inactive
hfw (GeneID 31120)	DRSC18506	65264	1.49e5		1692	6880	inactive
Tfb1 (GeneID 36598)	DRSC07082	1.29e5	1.20e5		4684	4381	inactive
CG32944 (GeneID 40560)	DRSC12138	84261	83619		2976	4592	inactive
CG32944 (GeneID 40560)	DRSC12341	70931	97153		2754	5292	inactive
